This is an account of results in patent publication US20170246137A1, “SULFESTROL FOR TREATING CANCER” (CHAMAELEO PHARMA BVBA, priority 2012, published 2017).

Molecules are shown by their SMILES.

In one assay the test system is MCF7. As to the kind of experiment: In vitro direct cytotoxicity, Cell titer Blue viability, 72 hrs. The following applies: read-out: IC50 value, MCF7, hormone-dependent breast cancer cell line. As for the experimental part:
(§1) Cells were maintained in vitro in RPMI 1640 containing 10% (v/v) heat inactivated FBS and 2 mM L-glutamine (growth media) at 37° C. in 5% CO2 and humidified conditions. Cells were harvested, washed, resuspended into growth medium and counted. The cells were re-suspended into assay media (RPMI 1640+1% (v/v) heat inactivated FBS+ and 2 mM L-glutamine) at 0.5-1×10^5 cells/ml (dependent upon cell type) and plated into 96-well assay plates (Corning, black-wall plates) in 50 ul/well aliquots.
(§2) Plates were incubated overnight at 37° C. in 5% humidified CO2 prior to addition of the compounds. […] Stocks of all compounds were then serially diluted. Final concentrations to which cells were exposed were 300, 150, 75, 37.5, 18.75, 9.4, 4.7, 2.3, 1.2, 0.6 μM. Positive control was Cisplatin. Cisplatin was diluted in 1% FBS media to give a stock concentration of 1 mM. Cisplatin stock was then serially diluted. Final concentrations to which cells were exposed were 100, 50, 25, 12.5, 6.3, 3.1, 1.6, 0.8, 0.4, 0.2 μM.
(§3) Plates were incubated for 72 hrs at 37° C. in 5% humidified CO2 after addition of the compounds. Viability of the cells was assessed with the Cell titer Blue™ (Promega) assay. 10 μl of Cell titer Blue™ reagents was added to each test/blank well. Plates were incubated 3 h at 37° C. in 5% humidified CO2 prior to analysis. Fluorescence was measured with a Flex II station plate reader. […]

For the next assay, the system named is MDA-MB-231. The assay is described as above. The following applies: read-out: IC50 value, MDA-MB-231, triple negative breast cancer cell line. Here is the method: as §1, §2, §3

As usually defined, the IC50 is the concentration needed to halve the response being measured.

As to `N.N.[Cl][Pt][Cl]` [Cisplatin, reference compound], the IC50 was 2.8 µM with MCF7 and 13 µM in the assay on MDA-MB-231.
